# The supplement of paper PMC8728848
# This is one part of the list.
# Assays:
# Experiment in all cases: glycan array binding signal (z-score within array); higher = stronger binding
# Settings in all cases: glycan notation: IUPAC condensed, linker removed; mutation: D21K
# [1] = target: GlcNAc(b1-3)Gal(b1-4)GlcNAc(b1-3)Gal(b1-4)GlcNAc(b1-3)Gal(b1-4)GlcNAc(b1-3)Gal(b1-4)GlcNAc(b1-2)[GlcNAc(b1-3)Gal(b1-4)GlcNAc(b1-3)Gal(b1-4)GlcNAc(b1-3)Gal(b1-4)GlcNAc(b1-3)Gal(b1-4)GlcNAc(b1-6)]Man(a1-6)[GlcNAc(b1-3)Gal(b1-4)GlcNAc(b1-3)Gal(b1-4)GlcNAc(b1-3)Gal(b1-4)GlcNAc(b1-3)Gal(b1-4)GlcNAc(b1-2)Man(a1-3)]Man(b1-4)GlcNAc(b1-4)[Fuc(a1-6)]GlcNAc
# Method in brief: (§1)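 The Consortium for Functional Glycomics database supplied 3228 glycan arrays, of which those lacking an available protein sequence were dropped. The binding signal, a within-array Z-score, was averaged across arrays of the same protein sequence and across linkers. Negative scores can be read as non-binding.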
# [2] = target: GlcNAc(b1-3)Gal(b1-4)GlcNAc(b1-3)Gal(b1-4)GlcNAc(b1-3)GalNAc
# Method in brief: as §1
# [3] = target: GlcNAc(b1-3)Gal(b1-4)GlcNAc(b1-3)GalNAc
# Method in brief: as §1
# [4] = target: GlcNAc(b1-3)Gal(b1-4)GlcNAc(b1-3)[GlcNAc(b1-3)Gal(b1-4)GlcNAc(b1-3)]GalNAc
# Method in brief: as §1
# [5] = target: GlcNAc(b1-3)Gal(b1-4)GlcNAc(b1-6)[Gal(b1-3)]GalNAc
# Method in brief: as §1
# [6] = target: GlcNAc(b1-3)Gal(b1-4)GlcNAc(b1-6)[GlcNAc(b1-3)Gal(b1-3)]GalNAc
# Method in brief: as §1
# [7] = target: GlcNAc(b1-3)Gal(b1-4)GlcNAc(b1-6)[GlcNAc(b1-3)]Gal(b1-4)GlcNAc
# Method in brief: as §1
# GlcNAc(b1-3)GalNAc = target: GlcNAc(b1-3)GalNAc
# Method in brief: as §1
# GlcNAc(b1-3)Man = target: GlcNAc(b1-3)Man
# Method in brief: as §1
# [8] = target: GlcNAc(b1-3)[GlcNAc(b1-4)][GlcNAc(b1-6)]GlcNAc
# Method in brief: as §1
# [9] = target: GlcNAc(b1-3)[GlcNAc(b1-6)]Gal(b1-4)GlcNAc
# Method in brief: as §1
# [10] = target: GlcNAc(b1-3)[GlcNAc(b1-6)]GalNAc
# Method in brief: as §1
# [11] = target: GlcNAc(b1-4)Gal(b1-4)GlcNAc
# Method in brief: as §1
# GlcNAc(b1-4)GlcNAc = target: GlcNAc(b1-4)GlcNAc
# Method in brief: as §1
# [12] = target: GlcNAc(b1-4)GlcNAc(b1-4)GlcNAc
# Method in brief: as §1
# [13] = target: GlcNAc(b1-4)GlcNAc(b1-4)GlcNAc(b1-4)GlcNAc(b1-4)GlcNAc
# Method in brief: as §1
# [14] = target: GlcNAc(b1-4)GlcNAc(b1-4)GlcNAc(b1-4)GlcNAc(b1-4)GlcNAc(b1-4)GlcNAc
# Method in brief: as §1
# [15] = target: GlcNAc(b1-4)[GlcNAc(b1-6)]GalNAc
# Method in brief: as §1
# [16] = target: GlcNAc(b1-6)Gal(b1-4)GlcNAc
# Method in brief: as §1
# GlcNAc(b1-6)GalNAc = target: GlcNAc(b1-6)GalNAc
# Method in brief: as §1
# [17] = target: GlcNAc6S(b1-3)Gal(b1-4)GlcNAc
# Method in brief: as §1
# Kdn(a2-3)Gal(b1-3)GalNAc = target: Kdn(a2-3)Gal(b1-3)GalNAc
# Method in brief: as §1
# Kdn(a2-3)Gal(b1-3)GlcNAc = target: Kdn(a2-3)Gal(b1-3)GlcNAc
# Method in brief: as §1
# Kdn(a2-3)Gal(b1-4)Glc = target: Kdn(a2-3)Gal(b1-4)Glc
# Method in brief: as §1
# Kdn(a2-3)Gal(b1-4)GlcNAc = target: Kdn(a2-3)Gal(b1-4)GlcNAc
# Method in brief: as §1
# [18] = target: Kdn(a2-3)Gal(b1-4)[Fuc(a1-3)]GlcNAc
# Method in brief: as §1
# Kdn(a2-6)Gal(b1-4)GlcNAc = target: Kdn(a2-6)Gal(b1-4)GlcNAc
# Method in brief: as §1
# [19] = target: Man(a1-2)Man(a1-2)Man(a1-3)Man
# Method in brief: as §1
# [20] = target: Man(a1-2)Man(a1-2)Man(a1-6)[Man(a1-3)]Man
# Method in brief: as §1
# Man(a1-2)Man(a1-3)Man = target: Man(a1-2)Man(a1-3)Man
# Method in brief: as §1
# [21] = target: Man(a1-2)Man(a1-3)[Man(a1-2)Man(a1-6)]Man
# Method in brief: as §1
# [22] = target: Man(a1-2)Man(a1-3)[Man(a1-2)Man(a1-6)]Man(a1-6)[Man(a1-2)Man(a1-2)Man(a1-3)]Man
# Method in brief: as §1
# [23] = target: Man(a1-2)Man(a1-3)[Man(a1-2)Man(a1-6)]Man(a1-6)[Man(a1-2)Man(a1-2)Man(a1-3)]Man(b1-4)GlcNAc(b1-4)GlcNAc
# Method in brief: as §1
# [24] = target: Man(a1-2)Man(a1-3)[Man(a1-6)]Man(a1-6)[Man(a1-2)Man(a1-3)]Man(b1-4)GlcNAc(b1-4)GlcNAc
# Method in brief: as §1
# [25] = target: Man(a1-2)Man(a1-6)[Man(a1-3)]Man(a1-6)[Man(a1-2)Man(a1-2)Man(a1-3)]Man
# Method in brief: as §1
# [26] = target: Man(a1-2)Man(a1-6)[Man(a1-3)]Man(a1-6)[Man(a1-2)Man(a1-2)Man(a1-3)]Man(b1-4)GlcNAc(b1-4)GlcNAc
# Method in brief: as §1
# Man(a1-3)[Man(a1-6)]Man = target: Man(a1-3)[Man(a1-6)]Man
# Method in brief: as §1
# [27] = target: Man(a1-3)[Man(a1-6)]Man(a1-6)[Man(a1-2)Man(a1-3)]Man(b1-4)GlcNAc(b1-4)GlcNAc
# Method in brief: as §1
# [28] = target: Man(a1-3)[Man(a1-6)]Man(a1-6)[Man(a1-3)]Man
# Method in brief: as §1
# [29] = target: Man(a1-3)[Man(a1-6)]Man(a1-6)[Man(a1-3)]Man(b1-4)GlcNAc(b1-4)GlcNAc
# Method in brief: as §1
# [30] = target: Man(a1-3)[Man(a1-6)]Man(b1-4)GlcNAc(b1-4)GlcNAc
# Method in brief: as §1
# [31] = target: Man(a1-3)[Man(a1-6)]Man(b1-4)GlcNAc(b1-4)[Fuc(a1-6)]GlcNAc
# Method in brief: as §1
# Man(a1-6)Man = target: Man(a1-6)Man
# Method in brief: as §1
# Man(b1-4)GlcNAc = target: Man(b1-4)GlcNAc
# Method in brief: as §1
# MurNAc(b1-4)GlcNAc = target: MurNAc(b1-4)GlcNAc
# Method in brief: as §1
binder,measurement,setting,value
KILRGVCKKIMRTFLRRISKKILTGKK [C7A (Sus scrofa)],glycan array binding signal (z-score),[1],2.49
same,glycan array binding signal (z-score),[2],0.667
same,glycan array binding signal (z-score),[3],1.01
same,glycan array binding signal (z-score),[4],1.12
same,glycan array binding signal (z-score),[5],1.57
same,glycan array binding signal (z-score),[6],-0.629
same,glycan array binding signal (z-score),[7],-0.948
same,glycan array binding signal (z-score),GlcNAc(b1-3)GalNAc,-2.16
same,glycan array binding signal (z-score),GlcNAc(b1-3)Man,-0.082
same,glycan array binding signal (z-score),[8],-0.24
same,glycan array binding signal (z-score),[9],0.238
same,glycan array binding signal (z-score),[10],-0.602
same,glycan array binding signal (z-score),[11],1.54
same,glycan array binding signal (z-score),GlcNAc(b1-4)GlcNAc,-0.608
same,glycan array binding signal (z-score),[12],-0.068
same,glycan array binding signal (z-score),[13],0.412
same,glycan array binding signal (z-score),[14],0.039
same,glycan array binding signal (z-score),[15],-1.04
same,glycan array binding signal (z-score),[16],-0.292
same,glycan array binding signal (z-score),GlcNAc(b1-6)GalNAc,-0.216
same,glycan array binding signal (z-score),[17],0.682
same,glycan array binding signal (z-score),Kdn(a2-3)Gal(b1-3)GalNAc,1.21
same,glycan array binding signal (z-score),Kdn(a2-3)Gal(b1-3)GlcNAc,1.28
same,glycan array binding signal (z-score),Kdn(a2-3)Gal(b1-4)Glc,0.545
same,glycan array binding signal (z-score),Kdn(a2-3)Gal(b1-4)GlcNAc,-1.57
same,glycan array binding signal (z-score),[18],0.071
same,glycan array binding signal (z-score),Kdn(a2-6)Gal(b1-4)GlcNAc,1.01
same,glycan array binding signal (z-score),[19],-1.34
same,glycan array binding signal (z-score),[20],1.14
same,glycan array binding signal (z-score),Man(a1-2)Man(a1-3)Man,-2.25
same,glycan array binding signal (z-score),[21],-1.45
same,glycan array binding signal (z-score),[22],-1.61
same,glycan array binding signal (z-score),[23],0.024
same,glycan array binding signal (z-score),[24],-2.27
same,glycan array binding signal (z-score),[25],-0.112
same,glycan array binding signal (z-score),[26],1.17
same,glycan array binding signal (z-score),Man(a1-3)[Man(a1-6)]Man,0.764
same,glycan array binding signal (z-score),[27],0.585
same,glycan array binding signal (z-score),[28],-1.4
same,glycan array binding signal (z-score),[29],1.28
same,glycan array binding signal (z-score),[30],-0.566
same,glycan array binding signal (z-score),[31],-0.065
same,glycan array binding signal (z-score),Man(a1-6)Man,-0.219
same,glycan array binding signal (z-score),Man(b1-4)GlcNAc,-0.45
same,glycan array binding signal (z-score),MurNAc(b1-4)GlcNAc,-0.482

# Reformatted as tab-separated lines: part of the list above
binder	measurement	setting	value
KILRGVCKKIMRTFLRRISKKILTGKK [C7A (Sus scrofa)]	glycan array binding signal (z-score)	[26]	1.17
same	glycan array binding signal (z-score)	Man(a1-3)[Man(a1-6)]Man	0.764
same	glycan array binding signal (z-score)	[27]	0.585
same	glycan array binding signal (z-score)	[28]	-1.4
same	glycan array binding signal (z-score)	[29]	1.28
same	glycan array binding signal (z-score)	[30]	-0.566
same	glycan array binding signal (z-score)	[31]	-0.065
same	glycan array binding signal (z-score)	Man(a1-6)Man	-0.219
same	glycan array binding signal (z-score)	Man(b1-4)GlcNAc	-0.45
same	glycan array binding signal (z-score)	MurNAc(b1-4)GlcNAc	-0.482
